Reference: article PMC8157759
Results are given in words; binding and its absence hold for the method and conditions named. In cells and extracts the contact can be indirect. Some binding calls cover weakened binding; strength is not graded here.

Assays:
[1] = target: T1, Eyes absent homolog 2 (human (endogenous in MHCC-97H and Huh-7)) (UniProt O00167); test: co-IP; endogenous proteins in MHCC-97H and Huh-7 cells; precipitated with anti-EYA2 antibody (DACH1 detected) and with anti-DACH1 antibody (EYA2 detected)
T1 sequence: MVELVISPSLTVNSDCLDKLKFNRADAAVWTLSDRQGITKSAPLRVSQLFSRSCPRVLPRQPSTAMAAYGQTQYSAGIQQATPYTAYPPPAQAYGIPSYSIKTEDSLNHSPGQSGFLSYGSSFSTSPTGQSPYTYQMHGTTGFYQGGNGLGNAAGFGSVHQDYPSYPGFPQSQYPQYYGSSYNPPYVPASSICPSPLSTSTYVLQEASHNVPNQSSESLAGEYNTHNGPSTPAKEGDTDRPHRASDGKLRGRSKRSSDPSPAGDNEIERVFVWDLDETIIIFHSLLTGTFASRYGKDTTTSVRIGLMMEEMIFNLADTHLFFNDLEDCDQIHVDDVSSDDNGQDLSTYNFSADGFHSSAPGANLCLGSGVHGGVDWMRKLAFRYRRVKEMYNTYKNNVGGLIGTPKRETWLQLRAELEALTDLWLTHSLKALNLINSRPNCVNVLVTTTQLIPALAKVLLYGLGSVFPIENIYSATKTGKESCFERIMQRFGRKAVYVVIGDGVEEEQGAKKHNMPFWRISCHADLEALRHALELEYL

[2] = target: T2, DACH1 (human (endogenous in MHCC-97H and Huh-7)) (UniProt Q9UI36); test: as above
T2 sequence: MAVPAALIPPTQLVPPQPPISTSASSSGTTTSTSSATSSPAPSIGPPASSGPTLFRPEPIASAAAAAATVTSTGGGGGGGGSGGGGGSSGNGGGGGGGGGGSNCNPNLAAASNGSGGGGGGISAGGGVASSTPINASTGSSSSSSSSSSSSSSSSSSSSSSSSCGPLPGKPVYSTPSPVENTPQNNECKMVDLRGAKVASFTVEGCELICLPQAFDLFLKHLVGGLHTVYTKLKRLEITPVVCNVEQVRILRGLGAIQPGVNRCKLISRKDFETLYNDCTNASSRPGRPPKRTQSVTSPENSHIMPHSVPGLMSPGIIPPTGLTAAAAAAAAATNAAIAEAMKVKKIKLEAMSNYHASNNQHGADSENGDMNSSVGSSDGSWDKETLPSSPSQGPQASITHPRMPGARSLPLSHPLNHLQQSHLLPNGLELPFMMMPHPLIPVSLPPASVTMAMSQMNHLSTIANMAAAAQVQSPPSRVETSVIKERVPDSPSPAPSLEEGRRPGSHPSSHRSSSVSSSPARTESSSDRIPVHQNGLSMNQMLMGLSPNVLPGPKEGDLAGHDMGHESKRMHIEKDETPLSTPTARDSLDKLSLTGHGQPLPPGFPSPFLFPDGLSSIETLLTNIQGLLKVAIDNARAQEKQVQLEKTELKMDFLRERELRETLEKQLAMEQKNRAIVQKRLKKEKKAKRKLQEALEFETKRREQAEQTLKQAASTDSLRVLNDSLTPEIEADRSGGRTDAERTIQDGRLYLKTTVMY

B1: DACH1 (protein, UniProt Q9UI36 1-758)
chain: T2 sequence
binding [1]: binds

B2: Eyes absent homolog 2 (protein, UniProt O00167 1-538)
chain: T1 sequence
binding [2]: binds
